Measurements from patent US20240091214A1, “LONAFARNIB FOR USE IN THE TREATMENT OF VIRAL INFECTIONS” (TWINCORE ZENTRUM FÜR EXPERIMENTELLE UND KLINISCHE …, priority 2021, published 2024).
At least one structure is not confirmed: it was looked up by name or label, or the drawing left a doubt.

Tests used:
[1] = system: HRSV luciferase reporter virus; assay: HRSV luciferase reporter virus infection assay (first and second round of infection); assay type: cell-based, human respiratory syncytial virus (HRSV); conditions: HRSV-infected cell culture, dose-response, comparison of lonafarnib and tipifarnib (FIG. 3)
From the text: The dose-response relationship of lonafarnib to the HRSV reporter virus is shown on the right. Below are the IC50 and IC90 values of the first round of infection and the second round of infection, respectively, and the 50% cytotoxic concentration of lonafarnib (CC50).
The chemical structure of the farneslytransferase inhibitors lonafarnib and tipifarnib is shown above. The dose-response relationship of these agents against the HRSV luciferase reporter virus is shown below.
Efficiency of HRSV infection-inhibition by lonafarnib was investigated by a series of infection assays. In the first round of infection, the effect of lonafarnib on the virus' cell entry, which includes RNA transcription, translation and replication up to 24 hours after infection, was investigated. In the second round of infection, the cell culture supernatant was harvested and transferred to naive cells at 24 h after primary infection. In these cells, again 24 h later, the infection efficiency was determined using the luciferase reporter. In this way, the efficiency was analyzed over a longer period of time, including the spread of the virus and the re-infection of cells. The IC50 values were determined at 0.02 μM (round 1) and 0.004 μM (round 2). (FIG. 2)
In a further trial, the effect of lonafarnib compared to the farnesyltransferase inhibitor tipifarnib on HRSV-infected cell culture was then analyzed and compared.

[2] = system: Hepatitis Delta Virus (HDV); assay: Production of infectious Hepatitis Delta Virus in transfected Huh7-hNTCP cells; assay type: cell-based; conditions: increasing concentrations (FIG. 8)
Method: 16 h later medium was exchanged and the cells were then cultured in absence or presence of 1% DMSO or increasing concentrations of lonafarnib or tipifarnib; (A) 10 days post transfection, translation of the HDV viral genome in the cells was confirmed by immunofluorescence and percentage of positive cells was calculated; (B) production of infectious progeny HDV was assessed by incubating serial dilutions of their supernatants on naïve Huh7-hNTCP, followed by staining for the HD-Ag—dashed lines indicates the detection threshold of the assay.

Cn1cncc1[C@@](N)(c1ccc(Cl)cc1)c1ccc2c(c1)c(-c1cccc(Cl)c1)cc(=O)n2C [tipifarnib]
suppression of HRSV infection [1]: only slightly effective | inhibition of Hepatitis Delta infections [2]: equally inhibit Hepatitis Delta infections
